Experimental data reported in PubChem BioAssay AID192 (DTP/NCI, 2004).
The list shows only some results of the screen, not a fair sample: it is rich in T/C values a quarter to a half above the control, in often repeated tests (any T/C) and in doses without a T/C. Further doses and runs are listed elsewhere. T/C: endpoint of the treated group in % of that of the vehicle group. Some entries give survivors of the animals treated and no T/C: the source files T/C as zero there, which appears to mark a toxic dose or a test without result, not a measured value. Some survivor counts are full or nearly so, which does not show that the dose was tolerated: the source hardly ever lists a survival T/C far under the control, and the zero likely stands for such cases as well. Survivors were counted at the toxicity check, usually on the fifth day, unless a day is given; later deaths do not show. Schedule codes are those of the source, read here as Q, the interval in days (D) or hours (H), X, the number of doses. Brackets with × give the number of equal values in this list. Some doses were run more than once; the results are listed from low to high. Where survival is the endpoint, the PubChem record calls one and a half times the control and up active, and a quarter to a half above the control has no call in these data; cut-offs in other NCI protocols can differ. Some T/C values carry the count of animals alive at the toxicity check (mostly the fifth day); without a count, all were alive then.

Test system: BDF1 mice, B16 melanoma ip, median survival T/C
Assay: NCI In Vivo Anticancer Drug Screen. Data for tumor model B16 Melanoma (intraperitoneal) in B6D2F1 (BDF1) mice
Settings: T/C endpoint: median survival time, higher T/C = longer survival
Method in brief: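 Each result divides a survival or tumor-size measurement in the compound-treated group by the same measurement in the vehicle group.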

[1] = dose: 25.0 mg/kg/injection, schedule: Q01DX009 (ip), vehicle: saline
[2] = dose: 30.0 mg/kg/injection, schedule: Q01DX009 (ip), vehicle: Klucel (hydroxypropylcellulose) (HPC)
[3] = dose: 50.0 mg/kg/injection, schedule: Q01DX009 (ip), vehicle: Klucel (hydroxypropylcellulose) (HPC)
[4] = dose: 50.0 mg/kg/injection, schedule: Q01DX009 (ip), vehicle: saline
[5] = dose: 60.0 mg/kg/injection, schedule: Q01DX009 (ip), vehicle: Klucel (hydroxypropylcellulose) (HPC)
[6] = dose: 100.0 mg/kg/injection, schedule: Q01DX009 (ip), vehicle: Klucel (hydroxypropylcellulose) (HPC)
[7] = dose: 100.0 mg/kg/injection, schedule: Q01DX009 (ip), vehicle: saline with Tween-80
[8] = dose: 100.0 mg/kg/injection, schedule: Q01DX009 (ip), vehicle: saline
[9] = dose: 200.0 mg/kg/injection, schedule: Q01DX009 (ip), vehicle: Klucel (hydroxypropylcellulose) (HPC)
[10] = dose: 200.0 mg/kg/injection, schedule: Q01DX009 (ip), vehicle: saline
[11] = dose: 400.0 mg/kg/injection, schedule: Q01DX009 (ip), vehicle: saline with Tween-80

For `S=c1nc[nH]c2nc[nH]c12`, which T/C (dose: 10.0 mg/kg/injection, schedule: Q01DX009 (ip), vehicle: other, evaluated on day 45) is on record?
The T/C was 107 and 115 % of control.

And the T/C (dose: 10.0 mg/kg/injection, schedule: Q01DX009 (ip), vehicle: other, evaluated on day 60)?
Its T/C is 97 and 98 % of control.

What about the T/C (dose: 15.0 mg/kg/injection, schedule: Q01DX009 (ip), vehicle: Klucel (hydroxypropylcellulose) (HPC)) of the same compound?
Its T/C is 90, 94, 97, 102, 105, 109, 115, 121 % of control.

What about the T/C (dose: 20.0 mg/kg/injection, schedule: Q01DX009 (ip), vehicle: other, evaluated on day 45) of the same compound?
Its T/C is 102 and 106 % of control.

And the T/C (dose: 20.0 mg/kg/injection, schedule: Q01DX009 (ip), vehicle: other, evaluated on day 60)?
Its T/C is 101 and 105 % of control.

What about the T/C (dose: 25.0 mg/kg/injection, schedule: Q01DX009 (ip), vehicle: Klucel (hydroxypropylcellulose) (HPC)) of the same compound?
The T/C was 94, 95, 96, 97 (2×), 102 (2×), 102 [4 of 6 alive], 103, 105, 107, 111, 113, 114, 123 % of control.

And the T/C (dose: 25.0 mg/kg/injection, schedule: Q01DX009 (ip), vehicle: saline with Tween-80, evaluated on day 45)?
The T/C was 100 % of control.

What about the T/C (dose: 25.0 mg/kg/injection, schedule: Q01DX009 (ip), vehicle: saline with Tween-80, evaluated on day 50) of the same compound?
The T/C was 95 % of control.

And the T/C (dose: 25.0 mg/kg/injection, schedule: Q01DX009 (ip), vehicle: saline with Tween-80, evaluated on day 60)?
Its T/C is 90 [5 of 6 alive], 92, 97, 102 % of control.

What about the survivor count (dose: 25.0 mg/kg/injection, schedule: Q01DX009 (ip), vehicle: saline with Tween-80) of the same compound?
The survivor count was 6 of 6.

What about the T/C [1] of the same compound?
Its T/C is 92 (2×), 105, 107, 113, 115 % of control.

And the survivor count [1]?
Its survivor count is 6 of 6.

And the T/C [2]?
Its T/C is 96, 110, 112, 117 % of control.

What about the survivor count [2] of the same compound?
Its survivor count is 10 of 10.

And the T/C (dose: 40.0 mg/kg/injection, schedule: Q01DX009 (ip), vehicle: other, evaluated on day 45)?
The T/C was 86 and 106 % of control.

What about the T/C (dose: 40.0 mg/kg/injection, schedule: Q01DX009 (ip), vehicle: other, evaluated on day 60) of the same compound?
The T/C was 97 and 102 % of control.

What about the survivor count (dose: 45.0 mg/kg/injection, schedule: Q01DX009 (ip), vehicle: other) of the same compound?
The survivor count was 9 of 10.

And the T/C [3]?
Its T/C is 86 (2×), 90 (2×), 92 [4 of 6 alive], 94, 100, 100 [5 of 6 alive], 102, 104, 126 % of control.

And the survivor count [3]?
The survivor count was 6 of 6.

What about the survivor count (dose: 50.0 mg/kg/injection, schedule: Q01DX009 (ip), vehicle: acid diluted with saline) of the same compound?
Its survivor count is 5 of 6.

What about the T/C (dose: 50.0 mg/kg/injection, schedule: Q01DX009 (ip), vehicle: saline with Tween-80, evaluated on day 45) of the same compound?
Its T/C is 92 % of control.

What about the T/C (dose: 50.0 mg/kg/injection, schedule: Q01DX009 (ip), vehicle: saline with Tween-80, evaluated on day 50) of the same compound?
The T/C was 87 % of control.

And the T/C (dose: 50.0 mg/kg/injection, schedule: Q01DX009 (ip), vehicle: saline with Tween-80, evaluated on day 60)?
Its T/C is 88, 92, 97 % of control.

And the survivor count (dose: 50.0 mg/kg/injection, schedule: Q01DX009 (ip), vehicle: saline with Tween-80)?
Its survivor count is 6 of 6 (2×).

And the T/C [4]?
Its T/C is 87, 94, 97 [4 of 6 alive], 113 % of control.

What about the survivor count [4] of the same compound?
Its survivor count is 6 of 7 and 6 of 6.

And the T/C [5]?
The T/C was 90, 94, 102 % of control.

And the survivor count [5]?
Its survivor count is 10 of 10.

What about the survivor count (dose: 60.0 mg/kg/injection, schedule: Q01DX009 (ip), vehicle: saline) of the same compound?
The survivor count was 6 of 6.

And the survivor count (dose: 80.0 mg/kg/injection, schedule: Q01DX009 (ip), vehicle: other)?
The survivor count was 9 of 10 and 10 of 10.

And the survivor count (dose: 90.0 mg/kg/injection, schedule: Q01DX009 (ip), vehicle: other)?
The survivor count was 2 of 10.

What about the T/C [6] of the same compound?
Its T/C is 88, 89 [4 of 6 alive], 97, 105 % of control.

What about the survivor count [6] of the same compound?
The survivor count was 4 of 6 and 6 of 6.

What about the survivor count (dose: 100.0 mg/kg/injection, schedule: Q01DX009 (ip), vehicle: acid diluted with saline) of the same compound?
The survivor count was 6 of 6.

What about the T/C (dose: 100.0 mg/kg/injection, schedule: Q01DX009 (ip), vehicle: saline with Tween-80, evaluated on day 50) of the same compound?
The T/C was 92 % of control.

And the T/C (dose: 100.0 mg/kg/injection, schedule: Q01DX009 (ip), vehicle: saline with Tween-80, evaluated on day 60)?
Its T/C is 100 % of control.

What about the survivor count [7] of the same compound?
Its survivor count is 6 of 6 (3×).

What about the T/C [8] of the same compound?
Its T/C is 88, 92, 93, 100, 115 % of control.

What about the survivor count [8] of the same compound?
Its survivor count is 6 of 6 and 7 of 7.

What about the survivor count (dose: 120.0 mg/kg/injection, schedule: Q01DX009 (ip), vehicle: Klucel (hydroxypropylcellulose) (HPC)) of the same compound?
Its survivor count is 9 of 10 and 10 of 10.

What about the survivor count (dose: 120.0 mg/kg/injection, schedule: Q01DX009 (ip), vehicle: saline) of the same compound?
Its survivor count is 6 of 6.

And the T/C [9]?
Its T/C is 88, 92, 96, 114 % of control.

What about the survivor count [9] of the same compound?
Its survivor count is 5 of 6 and 6 of 6.

And the survivor count (dose: 200.0 mg/kg/injection, schedule: Q01DX009 (ip), vehicle: acid diluted with saline)?
Its survivor count is 6 of 6.

What about the survivor count (dose: 200.0 mg/kg/injection, schedule: Q01DX009 (ip), vehicle: saline with Tween-80) of the same compound?
The survivor count was 4 of 6, 5 of 6, 6 of 6 (2×).

What about the T/C [10] of the same compound?
Its T/C is 87 and 97 % of control.

What about the survivor count [10] of the same compound?
Its survivor count is 5 of 6, 6 of 6, 7 of 7.

What about the survivor count (dose: 240.0 mg/kg/injection, schedule: Q01DX009 (ip), vehicle: Klucel (hydroxypropylcellulose) (HPC)) of the same compound?
The survivor count was 9 of 10 and 10 of 10.

For `CN(C)CCCC1c2ccccc2Oc2ccc(C(F)(F)F)cc21` (stereo not drawn), which survivor count [4] is on record?
The survivor count was 10 of 10.

Which survivor count [6] does the source give for `CC(=O)OCC1OC(n2cc(CBr)nn2)C(OC(C)=O)C(OC(C)=O)C1OC(C)=O` (stereo not drawn) here?
Its survivor count is 8 of 10.

Which results are given for `CCCCC(C(=O)OCC)C(CCC1CCCCC1)(C(=O)OCC)C(=O)OCC` (stereo not drawn)?
T/C (dose: 12.5 mg/kg/injection, schedule: Q04DX003 (ip), vehicle: Klucel (hydroxypropylcellulose) (HPC)): 136 % of control; survivor count (dose: 25.0 mg/kg/injection, schedule: Q04DX003 (ip), vehicle: Klucel (hydroxypropylcellulose) (HPC)): 10 of 10; survivor count (dose: 100.0 mg/kg/injection, schedule: Q04DX003 (ip), vehicle: Klucel (hydroxypropylcellulose) (HPC)): 10 of 10; survivor count (dose: 200.0 mg/kg/injection, schedule: Q04DX003 (ip), vehicle: Klucel (hydroxypropylcellulose) (HPC)): 10 of 10; survivor count (dose: 400.0 mg/kg/injection, schedule: Q04DX003 (ip), vehicle: Klucel (hydroxypropylcellulose) (HPC)): 10 of 10

With `CN(C)CCOc1ccccn1` as the compound, how does the survivor count [11] read?
The survivor count was 10 of 10.

`CCCCCC/C=C/[N+]([O-])=NC(COC)C(C)O` (stereo not drawn) was tested. Which survivor count (dose: 20.0 mg/kg/injection, schedule: Q01DX009 (ip), vehicle: Klucel (hydroxypropylcellulose) (HPC)) did it give?
The survivor count was 10 of 10.

How did the survivor count (dose: 25.0 mg/kg/injection, schedule: Q01DX009 (ip), vehicle: other) turn out when `Nc1c(Br)cc2c(c1Br)Cc1cc(Cl)ccc1-2` was run?
Its survivor count is 10 of 10.

And the survivor count (dose: 100.0 mg/kg/injection, schedule: Q01DX009 (ip), vehicle: other)?
The survivor count was 10 of 10.

And the survivor count [9]?
Its survivor count is 10 of 10.

And the survivor count (dose: 400.0 mg/kg/injection, schedule: Q04DX003 (ip), vehicle: other)?
The survivor count was 9 of 10.

Which T/C [4] does the source give for `C#CCOCC1CN(C)C(=O)O1` (stereo not drawn) here?
Its T/C is 126 % of control.

Which results are given for `N#CC1CCCC[N-]1.[NH-]CC[N-]CC[NH-].[Pt+4]` (stereo not drawn)?
survivor count [4]: 10 of 10; survivor count [8]: 10 of 10

How did the survivor count (dose: 12.5 mg/kg/injection, schedule: Q04DX003 (ip), vehicle: saline with Tween-80) turn out when `O=C1C(Br)=C(Br)C(=O)C1(Br)Br` was run?
The survivor count was 6 of 10.

With `Cc1ccc(N=NN(C)C)cc1` as the compound, how does the survivor count [7] read?
The survivor count was 9 of 10.

For `CCCCCC(O)C1C(=O)OC(C)C(O)/C=C/C=C/C=C/C=C\C=C(\C)C(O)CC(O)CC(O)CC(O)CC(O)CC(O)CC1O` (stereo not drawn), which survivor count (dose: 20.0 mg/kg/injection, schedule: Q01DX009 (ip), vehicle: saline) is on record?
Its survivor count is 10 of 10.

For `CCC(=O)OC1(c2ccccc2)CCN(C)C1C` (stereo not drawn), which survivor count [10] is on record?
Its survivor count is 1 of 10.

What about the survivor count (dose: 400.0 mg/kg/injection, schedule: Q01DX009 (ip), vehicle: saline) of the same compound?
Its survivor count is 0 of 10.

With `OCC1OCCO1` as the compound, how does the survivor count [11] read?
The survivor count was 10 of 10.

What does the source list for `CCN=NNc1ccc(C)cc1`?
survivor count (dose: 100.0 mg/kg/injection, schedule: Q04DX003 (ip), vehicle: saline with Tween-80): 9 of 10; survivor count (dose: 200.0 mg/kg/injection, schedule: Q04DX003 (ip), vehicle: saline with Tween-80): 0 of 10; survivor count (dose: 400.0 mg/kg/injection, schedule: Q04DX003 (ip), vehicle: saline with Tween-80): 0 of 10
